Data: PubChem BioAssay AID493014 (National Center for Advancing Translational Sciences (NCATS), 2011)
Where “and” joins values, the source holds several entries; their conditions need not be identical. Equal entries are not always repeated. The list shows a part of the results. Shown are side measurements of this screen, not its main read-out; they come without a call. Compounds called inactive in the main read-out are mostly missing here. The note in brackets gives the kind of curve behind each potency; many fits are weak.

Experiment: qHTS Assay to Find Inhibitors of Chronic Active B-Cell Receptor Signaling
Settings: ABC-DLBCL IkBa-CBG/CBR reporter, luminescence ratio (green luciferase fused to IkBa over red control in TMD8 lymphoma cells), 4 h
Method in brief: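 Concentration-response series (up to 46 uM) were applied to TMD8 dual-reporter cells for 4 h at 37C with doxycycline. Green/red ratio, after filter-overlap correction, defined %Activity; red signal alone was normalised to basal cells and zero luminescence.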

[1] = measured here: CBR red luminescence, cell number
[2] = measured here: IkBa-CBG green luminescence

SMILES	AC50 [1]	AC50 [2]
O=C(CSc1oc(-c2ccco2)nc1S(=O)(=O)c1ccccc1)NCC1CCCO1 (stereo unspecified)	13 µM [rising, partial curve]	–
C(=N\Nc1nccc(-c2cccnc2)n1)/c1ccccc1	6.31 µM [falling, partial curve, poor fit]	–
N#Cc1cnn(Cc2ccccc2)c1/N=C/N1CCOCC1	1.84 µM [rising, partial curve, poor fit]	–
Cc1ccc(NC(=O)CSC(N)=O)cc1Cl	7.08 µM [falling, partial curve, poor fit]	–
CCCCc1ccc(NC(=O)c2ccc(NS(C)(=O)=O)cc2)cc1	20 µM [falling, single point]	–
CCOC(=O)C1=C(COC(=O)Cc2c(F)cccc2Cl)NC(=O)NC1C (stereo unspecified)	29.1 µM [rising, single point]	–
COc1ccc2c(Cl)c(C(=O)NCc3ccco3)sc2c1	4.61 µM [rising, partial curve, poor fit]	–
c1ccc2ncc(-n3cnnn3)cc2c1	–	32.6 µM [falling, partial curve, poor fit]
COc1cccc(N=Nc2c(N)[nH]n3c(=O)c4c(nc23)CCCC4)c1	1.26 µM [falling, full curve, poor fit]	–
CC(=O)Nc1ccc(NC(=O)Nc2ccccc2C)cc1	3.55 µM [falling, partial curve, poor fit]	–
O=C(Nc1cccc(-c2nc3ccccc3[nH]2)c1)c1cccc(NC(=O)c2ccco2)c1	4.11 µM [falling, partial curve]	–
O=C(NC(=O)c1ccccc1)Nc1ccccn1	1.41 µM [falling, partial curve]	–
CCOc1ccc(N(Cc2ccc(C(=O)O)cc2)S(=O)(=O)c2ccc(C)cc2)cc1	35.5 µM [rising, single point]	35.5 µM [falling, single point]
COc1ccc(OC)c(-n2c(SCC(=O)Nc3cc(C)on3)nnc2-c2c[nH]c3ccccc23)c1	6.51 µM [falling, full curve, poor fit]	–
COC(=O)c1ccc(NC(=O)CCOc2ccccc2)cc1	7.94 µM [rising, partial curve]	–
Cn1c2ccc(F)cc2c2ncn(Cc3ccco3)c(=O)c21	29.1 µM [falling, single point]	–
CC(=O)N1CCC(=NNc2nc3ccccc3[nH]2)CC1	35.5 µM [falling, single point]	–
Cc1cccc(Nc2nc(N)nc(-c3oc4ccccc4c3C)n2)c1	3.55 µM [falling, full curve]	3.98 µM [rising, full curve, poor fit]
Cc1[nH]n(C(N)=S)c(=O)c1N=Nc1ccc([N+](=O)[O-])cc1Cl	–	5.01 µM [falling, partial curve, poor fit]
O=C(c1ccc(Cl)c(Cl)c1)N(Cc1ccco1)c1ccc(O)cc1	23.1 µM [falling, partial curve, poor fit]	–
CCOC(=O)c1sc(NC(=O)COC(=O)CNC(=O)c2ccco2)c(C(=O)OCC)c1C	5.8 µM [rising, partial curve, poor fit]	–

A different layout for part of the listing above:
SMILES,AC50 [1],AC50 [2]
CCCCc1ccc(NC(=O)c2ccc(NS(C)(=O)=O)cc2)cc1,"20 µM [falling, single point]",–
CCOC(=O)C1=C(COC(=O)Cc2c(F)cccc2Cl)NC(=O)NC1C (stereo unspecified),"29.1 µM [rising, single point]",–
COc1ccc2c(Cl)c(C(=O)NCc3ccco3)sc2c1,"4.61 µM [rising, partial curve, poor fit]",–

(further entries)

SMILES	AC50 [1]	AC50 [2]
CN1CCC(=C2c3ccccc3CC(=O)c3sccc32)CC1	14.6 µM [falling, partial curve, poor fit] and 25.1 µM [falling, single point]	–
CCC(=O)N(C1=C(NC(C)C)C(=O)c2ccccc2C1=O)C(C)C	35.5 µM [falling, single point]	–
O=C(c1cc(N2C(=O)C3C4CCC(C4)C3C2=O)ccc1Cl)N1CCN(c2ccc(F)cc2)CC1 (stereo unspecified)	6.51 µM [rising, partial curve, poor fit]	–
Cc1ccc(/C=c2\s/c(=C(/C#N)C(=O)N3CCCC3)n(Cc3ccco3)c2=O)s1	18.4 µM [falling, single point]	–
O=C(NC1CCCc2ccccc21)c1ccc([N+](=O)[O-])cc1 (stereo unspecified)	0.158 µM [falling, partial curve, poor fit]	–
Cc1c(C#N)c2ccccc2n1CC(=O)NCCc1c[nH]c2ccccc12	2.51 µM [falling, single point]	–
COc1ccc(-c2sc3cc4c(cc3c2C#Cc2ccc(N)cc2)OCO4)cc1	29.1 µM [rising, single point]	–
O=C(COC(=O)c1ccc(-c2cnc3ccccc3n2)cc1)c1ccccc1	2.06 µM [rising, partial curve, poor fit]	–
CCOc1cccc2sc(N(CCCN(C)C)C(=O)Cc3ccccc3)nc12	35.5 µM [falling, single point]	–
Cc1ccc(CN2CC(C(=O)NCCCSc3ccccc3)CC2=O)cc1 (stereo unspecified)	2.82 µM [rising, single point]	–
COC(=O)c1cc2n(n1)CCN(Cc1ccc(C)cc1)C2=O	29.1 µM [rising, single point]	–
O=C(COc1ccc(S(=O)(=O)Nc2cccc(C(F)(F)F)c2)cc1)N1CCOCC1	3.55 µM [falling, full curve, poor fit]	–
CCCn1nnnc1NC(=O)c1ccc2ccccc2c1	25.9 µM [rising, single point]	20.6 µM [falling, single point]
CCN(CCCNC(=O)CN1N=C(c2ccc(C)cc2)CCC1=O)c1ccccc1	35.5 µM [falling, single point]	–
O=C(CNC(=O)c1ccco1)NCC(c1ccco1)N1CCCCC1 (stereo unspecified)	0.103 µM [rising, full curve, poor fit]	–
CC(C)c1ccc(NC(=O)C2C3C=CC4(O3)C2C(=O)N(CCN2CCOCC2)C4C(=O)NC2CCCCC2)cc1 (stereo unspecified)	11.2 µM [rising, partial curve, poor fit]	–
COc1ccc(C(C)=O)c(OC(=O)c2ccc(OC)c(OC)c2)c1	23.1 µM [rising, single point]	–
O=C(COC(=O)c1ccco1)Nc1ccc2[nH]c(=O)[nH]c2c1	29.1 µM [rising, single point]	–
CC1CC(=O)c2cnc(Nc3cccc(C(F)(F)F)c3)nc2C1 (stereo unspecified)	0.251 µM [rising, full curve, poor fit]	–
COc1cccc(NC(=O)COC(=O)c2ccc(C)c(S(=O)(=O)N3CCCCC3)c2)c1	–	18.4 µM [falling, partial curve, poor fit]
CN1CCCC(CC2c3ccccc3Sc3ccccc32)C1 (stereo unspecified)	11.6 µM [falling, partial curve, poor fit]	–

SMILES	AC50 [1]	AC50 [2]
OC1(C#CCN2CCCC2)c2ccccc2-c2ccccc21	0.0891 µM [falling, full curve, poor fit]	–
Brc1ccc(C2=CC(c3ccco3)n3nnnc3N2)cc1 (stereo unspecified)	11.2 µM [rising, partial curve, poor fit]	–
O=C(O)c1ccccc1NS(=O)(=O)c1ccc(NN=Cc2cccc(Cl)c2)c([N+](=O)[O-])c1	23.1 µM [rising, single point]	–
CCCOc1ccc(Cn2ccnc2)cc1[N+](=O)[O-]	–	25.9 µM [falling, partial curve, poor fit]
COc1ccc(Nc2cc(C)nc(-n3nc(C)cc3C)n2)cc1	23.1 µM [rising, single point]	11.6 µM [falling, partial curve]
CCOC(=O)c1c(C)[nH]c(C(=O)OCc2c(C)noc2C)c1C	35.5 µM [falling, single point]	–
CCCCC(=O)Nc1nnc(-c2ccc(OC)cc2)s1	1.03 µM [rising, full curve, poor fit]	–
Cc1ccccc1CN1C(=O)c2ccccc2Sc2ccc(C(=O)NCCCN3CCOCC3)cc21	22.4 µM [falling, partial curve, poor fit]	–
CC(C)(CO)CNC(=O)CCc1nnc(CCCc2ccccc2)o1	3.98 µM [rising, partial curve, poor fit]	–
COc1cc(CC(=O)Nc2nc(-c3ccccc3)c(C(C)=O)s2)cc(OC)c1OC	12.6 µM [falling, partial curve]	–
COc1ccc(-c2cc(C(F)(F)F)nc(N)n2)cc1	8.91 µM [rising, partial curve]	–
Cc1ccc2cc(C#N)c(SCC(=O)NNC(=O)Cc3ccccc3)nc2c1	8.2 µM [falling, partial curve]	–
COC(=O)c1[nH]c2cccc(OC)c2c1NC(=O)CN1CCN(c2cccc(OC)c2)C(C)C1 (stereo unspecified)	2.59 µM [rising, full curve]	–
CCOc1ccc(NC(=O)CSc2cn[nH]n2)cc1	16.4 µM [falling, partial curve]	–
COc1ccc(Cn2nnc(C(=O)Nc3ccc(F)cc3)c2N)cc1	5.01 µM [falling, partial curve, poor fit]	–
Cc1ccc(S(=O)(=O)N(C)c2ccccc2)cc1	0.13 µM [rising, full curve, poor fit]	–
Cc1csc(N/N=C/c2c(F)cccc2Cl)n1	0.501 µM [rising, full curve, poor fit]	–
CCN1CCN(c2ccc(S(=O)(=O)N3CCCCC3)cc2NC(=O)c2ccc([N+](=O)[O-])o2)CC1	20.6 µM [falling, single point]	–
COc1ccc(CCNC(=O)c2ccc(OCc3c(C)noc3C)cc2)cc1OC	0.58 µM [rising, full curve, poor fit]	–
Cc1cc(C(=O)CN2C(=O)NC(Cc3c[nH]c4ccccc34)C2=O)c(C)n1C (stereo unspecified)	12.6 µM [rising, partial curve]	–
